Assay results published in doi:10.1101/415455.
These are yes or no findings as the source states them, for the method shown. For some assays here: Binding seen in cells or lysates may run through a third protein. Some results given as binding are weak or reduced against the parent protein; the word gives no strength. Tags and fused reporters may be left off the sequences shown. Blank lines part the entries; values can stand above or below the binder they belong to.

What was measured:
3xHA-CLAMP (Drosophila) = target: T1, 3xHA-CLAMP (Drosophila) (UniProt Q9V9N4); assay: co-IP
T1 sequence: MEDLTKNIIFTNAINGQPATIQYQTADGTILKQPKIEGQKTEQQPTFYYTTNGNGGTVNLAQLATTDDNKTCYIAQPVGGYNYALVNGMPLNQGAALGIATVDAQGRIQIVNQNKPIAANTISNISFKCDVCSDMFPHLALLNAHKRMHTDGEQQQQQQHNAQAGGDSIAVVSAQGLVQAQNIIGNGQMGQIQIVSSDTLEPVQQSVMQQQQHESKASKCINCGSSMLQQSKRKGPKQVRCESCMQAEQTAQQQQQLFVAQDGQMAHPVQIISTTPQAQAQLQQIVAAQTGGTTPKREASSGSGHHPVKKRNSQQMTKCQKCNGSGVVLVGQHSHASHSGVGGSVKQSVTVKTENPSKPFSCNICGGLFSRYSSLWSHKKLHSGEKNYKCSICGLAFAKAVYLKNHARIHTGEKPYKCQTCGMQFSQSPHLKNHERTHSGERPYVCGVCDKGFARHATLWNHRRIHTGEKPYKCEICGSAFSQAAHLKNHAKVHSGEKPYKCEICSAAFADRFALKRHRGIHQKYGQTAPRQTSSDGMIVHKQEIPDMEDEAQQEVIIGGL

[1] = target: T2, MSL2 (yeast two-hybrid fusion) (Drosophila) (UniProt P50534); assay: two-hybrid
T2 sequence: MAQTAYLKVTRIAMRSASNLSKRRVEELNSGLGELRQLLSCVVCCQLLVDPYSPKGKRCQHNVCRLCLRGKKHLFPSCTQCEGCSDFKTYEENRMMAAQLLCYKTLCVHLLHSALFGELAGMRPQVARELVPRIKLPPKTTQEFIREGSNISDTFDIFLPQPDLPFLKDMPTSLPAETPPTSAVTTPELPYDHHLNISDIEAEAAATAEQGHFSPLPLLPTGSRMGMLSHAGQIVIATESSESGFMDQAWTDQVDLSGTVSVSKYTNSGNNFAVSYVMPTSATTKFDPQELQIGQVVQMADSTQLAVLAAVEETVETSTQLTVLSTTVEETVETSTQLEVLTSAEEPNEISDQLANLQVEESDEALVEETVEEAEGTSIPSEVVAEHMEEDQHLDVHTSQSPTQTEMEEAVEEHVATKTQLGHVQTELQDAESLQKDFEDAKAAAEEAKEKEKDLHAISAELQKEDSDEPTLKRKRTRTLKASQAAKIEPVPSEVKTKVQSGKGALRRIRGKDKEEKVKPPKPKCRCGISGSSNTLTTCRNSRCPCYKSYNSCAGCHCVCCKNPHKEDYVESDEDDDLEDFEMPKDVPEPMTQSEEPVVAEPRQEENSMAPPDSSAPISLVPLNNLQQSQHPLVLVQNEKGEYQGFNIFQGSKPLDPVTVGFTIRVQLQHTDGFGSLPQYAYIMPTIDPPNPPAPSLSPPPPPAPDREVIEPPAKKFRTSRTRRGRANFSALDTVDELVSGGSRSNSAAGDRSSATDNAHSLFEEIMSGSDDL

[2] = target: T3, GST-CLAMP[1-196] (Drosophila) (UniProt Q9V9N4); assay: pull-down
T3 sequence: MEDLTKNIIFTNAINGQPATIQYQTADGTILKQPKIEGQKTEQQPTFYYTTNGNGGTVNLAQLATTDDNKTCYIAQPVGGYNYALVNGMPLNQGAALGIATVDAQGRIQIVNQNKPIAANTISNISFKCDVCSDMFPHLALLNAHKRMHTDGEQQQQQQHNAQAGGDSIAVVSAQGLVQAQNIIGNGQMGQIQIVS

[3] = target: T4, Thioredoxin-6xHis-CLAMP[1-196] (Drosophila) (UniProt Q9V9N4); assay: pull-down
T4 sequence: T3 sequence

[4] = target: T5, GST-MSL2[573-708] (Drosophila) (UniProt P50534); assay: pull-down
T5 sequence: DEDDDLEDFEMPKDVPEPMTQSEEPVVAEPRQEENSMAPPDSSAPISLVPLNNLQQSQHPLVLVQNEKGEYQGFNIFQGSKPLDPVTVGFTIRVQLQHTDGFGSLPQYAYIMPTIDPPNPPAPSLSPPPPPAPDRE

[5] = target: T6, Thioredoxin-6xHis-MSL2[573-708] (Drosophila) (UniProt P50534); assay: pull-down
T6 sequence: T5 sequence

B1: 3xFLAG-tagged MSL2^ΔB (protein, UniProt P50534)
chain: MAQTAYLKVTRIAMRSASNLSKRRVEELNSGLGELRQLLSCVVCCQLLVDPYSPKGKRCQHNVCRLCLRGKKHLFPSCTQCEGCSDFKTYEENRMMAAQLLCYKTLCVHLLHSALFGELAGMRPQVARELVPRIKLPPKTTQEFIREGSNISDTFDIFLPQPDLPFLKDMPTSLPAETPPTSAVTTPELPYDHHLNISDIEAEAAATAEQGHFSPLPLLPTGSRMGMLSHAGQIVIATESSESGFMDQAWTDQVDLSGTVSVSKYTNSGNNFAVSYVMPTSATTKFDPQELQIGQVVQMADSTQLAVLAAVEETVETSTQLTVLSTTVEETVETSTQLEVLTSAEEPNEISDQLANLQVEESDEALVEETVEEAEGTSIPSEVVAEHMEEDQHLDVHTSQSPTQTEMEEAVEEHVATKTQLGHVQTELQDAESLQKDFEDAKAAAEEAKEKEKDLHAISAELQKEDSDEPTLKRKRTRTLKASQAAKIEPVPSEVKTKVQSGKGALRRIRGKDKEEKVKPPKPKCRCGISGSSNTLTTCRNSRCPCYKSYNSCAGCHCVCCKNPHKEDYVESDEDDDLEDFEMPKDVPEPMTQSEEPVVAEPRQEENSMAPPDSSAPISLVPLNNLQQSQHPLVLVQNEKGEYQGFNIFQGSKPLDPVTVGFTIRVQLQHTDGFGSLPQYAYIMPTIDPPNPPAPSLSPPPPPAPDREVIEPPANFSALDTVDELVSGGSRSNSAAGDRSSATDNAHSLFEEIMSGSDDL
binding (3xHA-CLAMP (Drosophila)): binds

B3: Thioredoxin-6xHis-MSL2[573-708] (domain or fragment, UniProt P50534 573-708)
chain: T5 sequence
binding [2]: binds

B5: 3xFLAG-tagged MSL2^Δ13dΔB (protein, UniProt P50534)
chain: MAQTAYLKVTRIAMRSASNLSKRRVEELNSGLGELRQLLSCVVCCQLLVDPYSPKGKRCQHNVCRLCLRGKKHLFPSCTQCEGCSDFKTYEENRMMAAQLLCYKTLCVHLLHSALFGELAGMRPQVARELVPRIKLPPKTTQEFIREGSNISDTFDIFLPQPDLPFLKDMPTSLPAETPPTSAVTTPELPYDHHLNISDIEAEAAATAEQGHFSPLPLLPTGSRMGMLSHAGQIVIATESSESGFMDQAWTDQVDLSGTVSVSKYTNSGNNFAVSYVMPTSATTKFDPQELQIGQVVQMADSTQLAVLAAVEETVETSTQLTVLSTTVEETVETSTQLEVLTSAEEPNEISDQLANLQVEESDEALVEETVEEAEGTSIPSEVVAEHMEEDQHLDVHTSQSPTQTEMEEAVEEHVATKTQLGHVQTELQDAESLQKDFEDAKAAAEEAKEKEKDLHAISAELQKEDSDEPTLKRKRTRTLKASQAAKIEPVPSEVKTKVQSGKGALRRIRGKDKEEKVKPPKPKCRCGISGSSNTLTTCRNSRCPCYKSYNSCAGCHCVCCKNPHKEDYVESDEDDDLEDFEMPKDVPEPMTQSEEPVVAEPRQEENSMAPPDSSAPISLVPLNNLQQSQHPLVLVQNEKGLDPVTVGFTIRVQLQHTDGFGSLPQYAYIMPTIDPPNPPAPSLSPPPPPAPDREVIEPPANFSALDTVDELVSGGSRSNSAAGDRSSATDNAHSLFEEIMSGSDDL
binding (3xHA-CLAMP (Drosophila)): no binding

B6: Thioredoxin-6xHis-CLAMP[1-196] (domain or fragment, UniProt Q9V9N4 1-196)
chain: T3 sequence
binding [4]: binds

B7: GST-CLAMP[1-196] (domain or fragment, UniProt Q9V9N4 1-196)
chain: T3 sequence
binding [5]: binds

The remaining lines, values ahead:

binding [1]: binds
B2: CLAMP (yeast two-hybrid fusion) (protein, UniProt Q9V9N4 1-561)
chain: T1 sequence

binding [3]: binds
B4: GST-MSL2[573-708] (domain or fragment, UniProt P50534 573-708)
chain: T5 sequence

binding [4]: binds
B8: Thioredoxin-6xHis-tagged CLAMP region 86-153 (domain or fragment, UniProt Q9V9N4 86-153)
chain: VNGMPLNQGAALGIATVDAQGRIQIVNQNKPIAANTISNISFKCDVCSDMFPHLALLNAHKRMHTDGE
